# Measured values published in US6939874B2, “Substituted pyrimidinyl derivatives and methods of use” (Amgen Inc., priority 2001, dated 2005).
# By UniProt entry, the sequences of proteins in these tests, tags left out. Residues count along the entry.
# UniProt P08069, 31-1367: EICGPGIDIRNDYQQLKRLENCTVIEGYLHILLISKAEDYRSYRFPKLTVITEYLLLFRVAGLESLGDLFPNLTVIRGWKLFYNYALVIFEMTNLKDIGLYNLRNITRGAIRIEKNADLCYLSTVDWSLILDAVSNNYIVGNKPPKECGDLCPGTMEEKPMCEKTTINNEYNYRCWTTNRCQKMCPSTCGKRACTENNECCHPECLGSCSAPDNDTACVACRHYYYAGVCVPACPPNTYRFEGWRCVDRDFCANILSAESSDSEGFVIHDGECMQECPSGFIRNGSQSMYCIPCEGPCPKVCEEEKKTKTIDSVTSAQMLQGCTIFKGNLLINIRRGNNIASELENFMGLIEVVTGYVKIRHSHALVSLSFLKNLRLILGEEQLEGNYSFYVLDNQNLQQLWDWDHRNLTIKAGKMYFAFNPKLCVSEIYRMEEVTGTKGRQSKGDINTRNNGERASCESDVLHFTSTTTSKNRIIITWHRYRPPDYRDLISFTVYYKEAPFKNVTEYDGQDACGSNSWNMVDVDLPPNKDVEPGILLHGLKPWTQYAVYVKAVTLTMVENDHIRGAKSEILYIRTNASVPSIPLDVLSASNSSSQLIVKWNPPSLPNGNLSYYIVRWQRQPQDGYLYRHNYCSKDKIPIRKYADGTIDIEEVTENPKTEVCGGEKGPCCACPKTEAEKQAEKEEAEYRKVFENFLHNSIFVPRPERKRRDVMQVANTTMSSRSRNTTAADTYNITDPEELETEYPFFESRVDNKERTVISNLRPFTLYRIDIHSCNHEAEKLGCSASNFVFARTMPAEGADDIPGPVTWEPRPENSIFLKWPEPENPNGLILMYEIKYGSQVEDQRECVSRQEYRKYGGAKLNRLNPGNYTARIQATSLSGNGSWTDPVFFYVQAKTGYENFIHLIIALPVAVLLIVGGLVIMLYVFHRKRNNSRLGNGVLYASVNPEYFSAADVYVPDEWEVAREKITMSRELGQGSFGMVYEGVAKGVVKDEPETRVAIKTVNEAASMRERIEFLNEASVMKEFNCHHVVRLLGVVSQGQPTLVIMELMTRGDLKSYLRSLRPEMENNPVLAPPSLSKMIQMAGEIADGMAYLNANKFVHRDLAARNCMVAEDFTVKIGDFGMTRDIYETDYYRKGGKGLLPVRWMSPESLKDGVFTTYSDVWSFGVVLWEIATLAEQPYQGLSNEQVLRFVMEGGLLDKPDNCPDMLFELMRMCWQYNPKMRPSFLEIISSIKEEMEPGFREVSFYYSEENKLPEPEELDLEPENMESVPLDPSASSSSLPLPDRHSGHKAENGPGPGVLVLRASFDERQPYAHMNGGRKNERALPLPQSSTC
# Some of these results come from one statement about several compounds together.
# Molecular target: T1, IGF-1R kinase (Homo sapiens, UniProt P08069)
# T1 construct: Kinases are expressed as either kinase domains or full length constructs; made in house
# Test: IGF-1R kinase inhibition (33P transfer to plate-bound substrate)
# Assay type: biochemical
# Conditions: read-out: inhibited IGF-1R kinase (IC50)
row,Compound,IC50 [nM]
1,"COc1cc(Nc2nccc(Nc3cnc4ccccc4c3)n2)ccc1/C=C/C(=O)N1CCCC1 [Example 148, 3-{2-Methoxy-4-[4-(quinolin-3-ylamino)-pyrimidin-2-ylamino]-phenyl}-1-pyrrolidin-1-yl-propenone]",< 50
2,"COc1cc(Nc2nccc(Nc3cnc4ccccc4c3)n2)ccc1CCC(=O)N1CCCC1 [Example 149, 3-{2-Methoxy-4-[4-(quinolin-3-ylamino)-pyrimidin-2-ylamino]-phenyl}-1-pyrrolidin-1-yl-propanone]",< 50
3,"COc1cc(Nc2nccc(Nc3cnc4ccccc4c3)n2)ccc1CCCN1CCCC1 [Example 150, N^2-[3-Methoxy-4-(3-pyrrolidin-1-yl-propyl)-phenyl]-N-4-quinolin-3-yl-pyrimidine-2,4-diamine]",< 50
4,"COc1cc(Nc2nccc(Nc3cnc4ccccc4c3)n2)ccc1OCCC1CCN(c2nccc(Nc3cnc4ccccc4c3)n2)CC1 [Example 151, N^2-[3-Methoxy-4-(2-{1-[4-(quinolin-3-ylamino)-pyrimidin-2-yl]-piperidin-4-yl}-ethoxy)-phenyl]-N^4-quinolin-3-yl-pyrimidine-2,4-diamine]",< 50
